Source: PubChem BioAssay AID743454 (Peter MacCallum Cancer Centre, 2014)
Here is a random part of about 18,000 reagents tested. Of all reagents, 450 (2.5%) got an active call. 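Single biological run; no consistent viability z cut-off exists, so the class columns, not z-scores, define the calls.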

Assay: 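Knock-downs lowering viability or raising caspase 3/7 activity in vorinostat-treated resistant cells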 (primary screen)
System: human HCT116-VR colon cancer cells, selected for vorinostat resistance
Reagent: siRNA pool against human genes, 40 nM siRNA pool
Duration: vorinostat for 24 h, read-out about 72 h after transfection
Challenge: vorinostat at 2.5 µM final
Detection: 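Two measures, CellTiter-Fluor viability and luminescent caspase 3/7 activity, each as fold change against same-plate mock wells, mean of duplicates, then screen-wide robust z-score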
Direction: viability robust z-score: higher = more viable cells than screen typical; caspase robust z-score: higher = more caspase 3/7 activity than screen typical
Active means: 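a knock-down is a hit when classed RV1 or RV2 for lowered viability, or CA1 or CA2 for caspase activation; those lethal without drug were dropped; hits were retested singly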

With CCDC102B, how do the results read?
viability hit class: no change; caspase hit class: no change; viability robust z-score: -0.55; caspase robust z-score: -1.06; outcome: inactive

With GPKOW, how do the results read?
viability hit class: no change; caspase hit class: no change; viability robust z-score: -2.15; caspase robust z-score: 4.64; outcome: inactive

With SLCO4A1, what does the deposit list?
viability hit class: no change; caspase hit class: no change; viability robust z-score: -1.25; caspase robust z-score: -0.02; outcome: inactive

With APC, how do the results read?
viability hit class: no change; caspase hit class: no change; viability robust z-score: -0.87; caspase robust z-score: 0.59; outcome: inactive

With KIRREL3, how do the results read?
viability hit class: no change; caspase hit class: no change; viability robust z-score: 0.34; caspase robust z-score: -1.16; outcome: inactive

How did the screen score ZNF623?
viability hit class: no change; caspase hit class: no change; viability robust z-score: 0.76; caspase robust z-score: -0.24; outcome: inactive

With CHST6, what does the deposit list?
viability hit class: no change; caspase hit class: no change; viability robust z-score: 1.06; caspase robust z-score: -0.64; outcome: inactive

With ATP4B, what was measured?
viability hit class: no change; caspase hit class: no change; viability robust z-score: 0.08; caspase robust z-score: -0.16; outcome: inactive

For FBXL13, what was measured?
viability hit class: no change; caspase hit class: no change; viability robust z-score: -0.92; caspase robust z-score: 0.44; outcome: inactive

How did the screen score DHCR24?
viability hit class: no change; caspase hit class: no change; viability robust z-score: -1.71; caspase robust z-score: -0.22; outcome: inactive

Which result is listed for GCC2?
viability hit class: no change; caspase hit class: no change; viability robust z-score: 0.37; caspase robust z-score: -0.34; outcome: inactive

Which result is listed for LGI1?
viability hit class: no change; caspase hit class: no change; viability robust z-score: -1.42; caspase robust z-score: 2.27; outcome: inactive

3 entries from above, limited to “caspase robust z-score”:
APC	0.59
KIRREL3	-1.16
ZNF623	-0.24

More reagents follow.
For IQSEC2, what was measured?
viability hit class: no change; caspase hit class: no change; viability robust z-score: -0.16; caspase robust z-score: 1.04; outcome: inactive

What is on record for AKAP17A?
viability hit class: no change; caspase hit class: no change; viability robust z-score: -0.6; caspase robust z-score: -0.22; outcome: inactive

What did the screen give for CLTC?
viability hit class: no change; caspase hit class: no change; viability robust z-score: -1.17; caspase robust z-score: -0.69; outcome: inactive

For KLF10, what does the deposit list?
viability hit class: no change; caspase hit class: no change; viability robust z-score: 0.08; caspase robust z-score: 0.05; outcome: inactive

With DPP8, what was measured?
viability hit class: no change; caspase hit class: no change; viability robust z-score: 0.11; caspase robust z-score: 1.29; outcome: inactive

How did the screen score COG1?
viability hit class: no change; caspase hit class: no change; viability robust z-score: -0.88; caspase robust z-score: -0.24; outcome: inactive

Which result is listed for EXOC3L1?
viability hit class: no change; caspase hit class: no change; viability robust z-score: -1.68; caspase robust z-score: -0.51; outcome: inactive

How did the screen score DICER1?
viability hit class: no change; caspase hit class: no change; viability robust z-score: -0.2; caspase robust z-score: -0.83; outcome: inactive

For VPS35L, what does the deposit list?
viability hit class: no change; caspase hit class: no change; viability robust z-score: 0.79; caspase robust z-score: -0.07; outcome: inactive

How did the screen score FAM13C?
viability hit class: no change; caspase hit class: no change; viability robust z-score: 0.29; caspase robust z-score: 0.34; outcome: inactive

With ACADL, what was measured?
viability hit class: no change; caspase hit class: no change; viability robust z-score: -1.27; caspase robust z-score: 4.82; outcome: inactive

With ZNF85, how do the results read?
viability hit class: no change; caspase hit class: no change; viability robust z-score: 0.72; caspase robust z-score: 0.34; outcome: inactive

With BUD31, how do the results read?
viability hit class: no change; caspase hit class: no change; viability robust z-score: -2.08; caspase robust z-score: 1.09; outcome: inactive

What is on record for WNT2?
viability hit class: no change; caspase hit class: no change; viability robust z-score: 0.59; caspase robust z-score: 0.26; outcome: inactive

Which result is listed for LOC642678 (retired record)?
viability hit class: no change; caspase hit class: no change; viability robust z-score: 0.86; caspase robust z-score: -0.14; outcome: inactive
